Earlier results in patent US8753681B2, “Pharmaceutical composition comprising at least one active agent and a binder, which swells in an acidic media” (LEK Pharmaceuticals D.D., priority 2007, dated 2014).

Details: after oral application

CC(C)c1c(C(=O)Nc2ccccc2)c(-c2ccccc2)c(-c2ccc(F)cc2)n1CC[C@@H](O)C[C@@H](O)CC(=O)O [Atorvastatin]
time to reach maximum plasma concentration: less than 2 hours
